Laboratory results reported in the supplement of paper PMC11732987, “Enantioselective OTUD7B fragment discovery through chemoproteomics screening and high-throughput optimisation” (Communications Chemistry, 2025).
This is one part of the list. The data scatter; read single values as rough.

Sequences of proteins named here, by UniProt entry; tags and fusion partners are left off. A change or cut given only in a name is not applied to a line headed by its entry.
UniProt O43815: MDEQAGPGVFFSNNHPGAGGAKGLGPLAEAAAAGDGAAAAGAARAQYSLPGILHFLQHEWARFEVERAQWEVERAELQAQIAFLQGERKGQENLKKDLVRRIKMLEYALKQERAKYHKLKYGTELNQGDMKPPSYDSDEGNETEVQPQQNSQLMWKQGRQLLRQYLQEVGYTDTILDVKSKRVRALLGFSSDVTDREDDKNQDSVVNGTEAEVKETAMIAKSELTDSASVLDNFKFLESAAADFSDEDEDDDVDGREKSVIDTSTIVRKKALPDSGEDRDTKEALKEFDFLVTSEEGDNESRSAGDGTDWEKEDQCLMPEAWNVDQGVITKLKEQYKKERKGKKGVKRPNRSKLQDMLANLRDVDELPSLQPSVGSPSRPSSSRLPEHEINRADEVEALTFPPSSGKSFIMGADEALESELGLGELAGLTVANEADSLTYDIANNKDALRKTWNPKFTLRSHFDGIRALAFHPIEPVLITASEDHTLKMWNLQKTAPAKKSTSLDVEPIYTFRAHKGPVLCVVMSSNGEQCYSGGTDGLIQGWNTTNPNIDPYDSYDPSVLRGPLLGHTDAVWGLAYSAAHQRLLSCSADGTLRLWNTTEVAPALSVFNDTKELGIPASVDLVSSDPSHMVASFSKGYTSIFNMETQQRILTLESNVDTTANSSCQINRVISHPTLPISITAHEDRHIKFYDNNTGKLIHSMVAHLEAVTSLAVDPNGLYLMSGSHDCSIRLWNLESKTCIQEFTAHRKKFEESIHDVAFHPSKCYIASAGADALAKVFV

These molecules were tested against T1, STRN C316 (UniProt O43815) (assay: log2 mean competition ratio of IA-DTB cysteine labelling (DMSO/compound) (log2 ratio); higher = stronger cysteine engagement by compound). Conditions: 50 µM; treatment time: 4 h; cell line lysate: HEK293T.
T1 sequence (whole entry): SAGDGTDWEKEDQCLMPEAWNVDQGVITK
Experimental: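 IA-DTB competitive cysteine chemoproteomics in HEK293T RIPA lysate. Lysates were treated with compound 29 or 30 at 50 or 200 µM for 4 h, then IA-DTB (500 µM, 1 h), trypsin-digested, NeutrAvidin-enriched and analysed by diaPASEF. Competition ratio = intensity DMSO / intensity compound (n=4 treated, n=64 DMSO); binding: mean log2 CR ≥ 1 and p ≤ 0.05 plus QC filters. Target is the cysteine site.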

| SMILES | log2 mean competition ratio |
| --- | --- |
| O=C(CCl)N[C@@H]1CCCc2ccccc21 | -0.264 |
| O=C(CCl)N[C@H]1CCCc2ccccc21 | 0.352 |

Same assay, conditions: 200 µM; treatment time: 4 h; cell line lysate: HEK293T

| SMILES | log2 mean competition ratio |
| --- | --- |
| O=C(CCl)N[C@@H]1CCCc2ccccc21 | -0.24 |
| O=C(CCl)N[C@H]1CCCc2ccccc21 | -0.289 |
